The assay is described as follows: qHTS Assay to Find Inhibitors of Chronic Active B-Cell Receptor Signaling. To be noted: ABC-DLBCL IkBa-CBG/CBR reporter, luminescence ratio (green luciferase fused to IkBa over red control in TMD8 lymphoma cells), 4 h. The gist of the method: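 Cell line TMD8 (human ABC DLBCL), stably expressing tet-inducible CBG68-IkBa fusion and CBR; IMDM/0.5% FBS; cpd up to 46 uM; dox induction, 4 h, 37C/5% CO2; dual luminescence; green/red ratio; MG132 control.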
Background: Quantitative high-throughput screening tests each substance at several concentrations.

Where [1] appears, read: measured here: CBR red luminescence, cell number.
Where [2] appears, read: measured here: IkBa-CBG green luminescence.

Structures are written as SMILES. Some of the results follow. Further columns of the screen follow, without active or inactive calls. The list favours compounds with an active or inconclusive main result. The note in brackets gives the kind of curve behind each potency; many fits are weak.

By AC50 is commonly meant the concentration at which the activity in the assay is half-maximal. `CN(Cc1ccc(CNC[C@H]2O[C@@H](n3cnc4c(N)ncnc43)[C@H](O)[C@@H]2O)o1)S(C)(=O)=O`: the half-maximal activity concentration (AC50) under setting [1] is 0.82 µM [rising, full curve, poor fit].

For `Cc1ccc(Nc2nc(CSc3nnc(-c4ccccc4)n3C)cs2)cc1`, the AC50 under setting [1] is 29.1 µM [falling, single point].

Regarding `CC(=O)Nc1cccc(C(=O)NC2CCCc3c2cnn3-c2ccccc2F)c1` (stereo not drawn), under setting [1], the half-maximal activity concentration (AC50) is 3.55 µM [rising, partial curve, poor fit].

Regarding `[N-]=[N+]=CC(=O)CCCN1C(=O)c2ccccc2C1=O`, the half-maximal activity concentration (AC50) under setting [1] was 35.5 µM [rising, single point].

In the case of `NC(=O)C1CCN(C(=O)COc2ccc3ccccc3c2)CC1`, the AC50 under setting [1] was 0.461 µM [falling, full curve].

Regarding `O=C(NN=C1CCCC1)c1sc2ccccc2c1Cl`, the AC50 under setting [1] was 12.6 µM [falling, partial curve, poor fit].

On to `Cc1ccc(C(=O)Nc2nc(-c3ccco3)c(-c3ccco3)s2)o1`, for which, under setting [1], the half-maximal activity concentration (AC50) was 0.00731 µM [falling, full curve, poor fit].

Consider `O=C(CCNc1n[nH]c(=O)[nH]c1=O)N/N=C\c1ccc(Br)cc1`, for which, under setting [1], the AC50 was 14.1 µM [rising, single point].

Consider `COc1ccc(N(C(=O)CCl)C(C(=O)NCCc2ccccc2)c2cccs2)cc1` (stereo not drawn), for which, under setting [1], the AC50 was 2.91 µM [falling, partial curve].

Take `COC(=O)C1=C(C)N(Cc2ccccc2)C(=NCCc2ccccn2)N[C@H]1c1cccc(C(F)(F)F)c1`: under setting [1], the AC50 is 11.2 µM [falling, partial curve].

For `CC(=O)c1cccc(NC(=O)NCCc2c[nH]c3ccccc23)c1`, under setting [1], the concentration at half-maximal activity (AC50) is 25.1 µM [falling, partial curve].

Turning to `CCCc1cc(=O)n2[nH]c(-c3ccc(Br)cc3)cc2n1`, the concentration at half-maximal activity (AC50) under setting [1] is 3.66 µM [falling, full curve].

As to `Cn1c(SCc2cccnc2)nnc1-c1c[nH]c2ccccc12`, the AC50 under setting [1] was 14.6 µM [rising, single point].

Consider `COc1ccccc1C(CCNCc1ccccc1)c1ccc(OC(C)C)cc1` (stereo not drawn), for which the concentration at half-maximal activity (AC50) under setting [1] was 15.8 µM [falling, single point].

Regarding `Cc1ccc(NC(=O)CCC(=O)N2CCC(C)CC2)c([N+](=O)[O-])c1`, the AC50 under setting [1] is 3.98 µM [rising, partial curve, poor fit].

On to `O=C(c1cc(-c2ccccc2)nc2ccccc12)N1CCc2ccccc2C1`, for which the AC50 under setting [1] was 29.1 µM [falling, partial curve, poor fit].

With `O=C(CCc1nnc2ccc(NCc3ccccc3)nn12)NCC1CCN(C2CCCC2)C1` (stereo not drawn), under setting [1], the AC50 was 35.5 µM [rising, single point].

With `Cc1ccc(NC(=O)CSc2nc(O)c(Cc3ccccc3)c(=O)n2-c2ccccc2)cc1`, the AC50 under setting [1] is 11.6 µM [falling, partial curve, poor fit].

Turning to `COc1ccc(-c2cc(C(F)F)n3ncc(C(=O)N4CCc5ccccc54)c3n2)cc1`, the AC50 was 3.55 µM [falling, full curve] under setting [1] and 6.31 µM [rising, full curve, poor fit] under setting [2].

Take `CCc1ccc2c(Cl)c(C(=O)N/N=C/c3c[nH]c4ccccc34)sc2c1`: the half-maximal activity concentration (AC50) under setting [1] was 35.5 µM [falling, single point].

Consider `CCc1ccccc1OCC(=O)NNCC(=O)Nc1cccc(C#N)c1`, for which the half-maximal activity concentration (AC50) under setting [1] was 29.1 µM [falling, partial curve, poor fit].

With `CCc1cccc2c(C(=O)COC(=O)c3c(C)noc3C)c[nH]c12`, the AC50 under setting [1] is 17.8 µM [falling, partial curve, poor fit].

On to `CN1C(=O)C2(c3ccccc31)C1CCCC=C1C(C#N)=C(N)C2(C#N)C#N` (stereo not drawn), for which the AC50 under setting [1] was 1.84 µM [falling, partial curve, poor fit].

Regarding `CCN1C(=O)C(Cc2nc3ccccc3c(=O)n2C)c2ccccc21` (stereo not drawn), the AC50 under setting [1] was 20 µM [falling, single point].

For `CCCN1CCC(=O)N(CCSc2ccc(C)cc2)CC1`, under setting [1], the concentration at half-maximal activity (AC50) is 0.891 µM [falling, full curve, poor fit].

Take `CCN(CC)C(=O)Cn1cc(C(=O)C(=O)NCCc2ccccc2)c2ccccc21`: the AC50 under setting [1] was 1.58 µM [falling, full curve].

Turning to `CCOC(=O)c1cc(CC)sc1N`, the AC50 under setting [1] was 25.1 µM [rising, single point].

Consider `Nc1c(S(=O)(=O)c2cccs2)c2nc3ccccc3nc2n1Cc1ccccc1`, for which the AC50 under setting [1] was 0.164 µM [falling, full curve, poor fit].

Take `CCOc1cc(S(=O)(=O)Nc2ccc(CC)cc2)ccc1Cl`: under setting [1], the AC50 is 29.1 µM [falling, single point].

As to `CCCC(C)NC(=O)CSc1nc(-c2ccccc2)cn1N` (stereo not drawn), under setting [1], the AC50 is 35.5 µM [rising, single point].

As for `CCCn1c(NCc2c[nH]c3ccccc23)nc2ccccc21`, the half-maximal activity concentration (AC50) under setting [1] was 32.6 µM [falling, single point].

With `O=C(c1ccc(OC2CCN(CCc3ccccc3)CC2)cc1)N1CCC(CO)CC1`, the concentration at half-maximal activity (AC50) under setting [1] is 2.51 µM [falling, partial curve, poor fit].

As for `COc1ccc(C(=O)n2c(-c3ccco3)nc3ccccc32)cc1`, the concentration at half-maximal activity (AC50) under setting [2] is 35.5 µM [falling, partial curve, poor fit].

With `O=C(c1ccco1)N(Cc1ccccc1)Cc1ccccn1`, under setting [1], the half-maximal activity concentration (AC50) was 6.31 µM [rising, single point].

In the case of `CCOC1(C)OCC(=O)[C@]2(CCC3C4CCC5=CC(=O)C=CC5(C)C4C(=O)CC32C)O1` (stereo partly drawn), under setting [1], the AC50 was 16.4 µM [rising, partial curve].

In the case of `CCOC(=O)C(=O)NN=C(c1ccccc1)c1ccccc1`, the concentration at half-maximal activity (AC50) under setting [1] was 0.282 µM [rising, full curve, poor fit].

Turning to `O=c1[nH]c(-[n+]2ccc3ccccc3c2)c(/C=N/N=C(\[O-])c2ccccc2)s1`, the AC50 under setting [1] was 7.08 µM [falling, full curve].

Take `O=C(NCc1c(F)cccc1F)c1cc(COc2c(F)cccc2F)on1`: the concentration at half-maximal activity (AC50) under setting [1] is 35.5 µM [rising, single point].

With `CO/N=C/c1ccc(Oc2ccc([N+](=O)[O-])cc2[N+](=O)[O-])c(OC)c1`, the AC50 was 29.1 µM [falling, single point] under setting [1] and 29.1 µM [falling, single point] under setting [2].

Turning to `CN(C(=O)CSc1cccc[n+]1[O-])C1CCCCC1`, the AC50 by setting is: under setting [1], 4.61 µM [falling, partial curve]; under setting [2], 25.9 µM [falling, single point].

The values are drawn from PubChem BioAssay AID493014 (National Center for Advancing Translational Sciences (NCATS), 2011).
